# Earlier results, collected in patent publication US11058779B2 (priority 2015, dated 2021).
# Some results were stated once for a whole list of compounds, not compound by compound. Some ranges recur; such a range may be that of the whole group of compounds.
# System: MERS-CoV
# Conditions: read-out: 50% effective concentrations [EC(50)s], MERS-CoV replication
row,SMILES,EC50 [µM]
1,CCN(CC)CCCC(C)Nc1ccnc2cc(Cl)ccc12 (stereo not drawn) [chloroquine],3 to 8
2,CN(C)CCCN1c2ccccc2Sc2ccc(Cl)cc21 [chlorpromazine],3 to 8
3,Cc1cccc(C)c1OCC(=O)N[C@@H](Cc1ccccc1)[C@@H](O)C[C@H](Cc1ccccc1)NC(=O)[C@H](C(C)C)N1CCCNC1=O [lopinavir],3 to 8
